PubChem BioAssay AID686943, Drosophila RNAi Screening Center | 2013
Test: 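Fly genes whose loss alters ERK activation after insulin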 (primary screen). Cells: Drosophila S2R+ haemocyte-like cells expressing YFP-tagged ERK (Rolled). Reagent: long dsRNA against Drosophila genes. Conditions: insulin stimulation versus unstimulated cells; dose and duration not given. Read-out: 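Per-plate z-scores of phospho-ERK immunostaining normalised to YFP-tagged ERK, measured with and without insulin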. Direction: replicate 1, z-score of dpERK with insulin: higher = more active ERK per ERK-YFP after insulin.
The screen tested about 23,000 reagents; below is a random part of those that have a named target and a result. 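Extra replicates exist only for a retested subset of genes; insulin dose and duration not given; both raised and lowered dpERK matter.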 A plus sign joins genes that one reagent is predicted to hit. Not all columns of the deposit are shown. The record does not give: the amount of reagent, the time to read-out.

replicate 1, z-score of dpERK with insulin, by gene and reagent
Cadps: DRSC21057 0.09; DRSC22200 -3.53
CG12290: DRSC14497 -0.19
Rpn2: DRSC16839 -7.54
Obp83ef: DRSC12268 0.17
Pep: DRSC11252 -0.6
Drice: DRSC16715 0.31
CG1441: DRSC06448 0.53
eIF4E6: DRSC14853 -1.05
Lime: DRSC06752 1.31
Sec16: DRSC19788 1.34; DRSC19858 -0.19
CtsK1: DRSC08742 -0.34
pgc: DRSC04099 0.09
Eglp3: DRSC04293 -0.86
CG32533: DRSC19443 1.34; DRSC19553 -0.07
Herp: DRSC02394 -0.03
Ir48b: DRSC06320 -0.75
Obp69a: DRSC11247 0.25
CG12448: DRSC01967 -0.58
snky: DRSC09838 0.17
Tsp42A: DRSC04862 0.24
sut3: DRSC07702 -0.06
spoon: DRSC18299 1.01
Pal1: DRSC06106 0.04
Obp19c: DRSC20528 -0.08
CG14635: DRSC17945 -0.9
Acsx1L: DRSC16014 -0.84
Arp10: DRSC19448 0.16
CG14362: DRSC14824 0.19
Semp1: DRSC01874 -0.08
Hmr: DRSC17740 -0.13

Not a retest: 3 of the entries above.
replicate 1, z-score of dpERK with insulin, by gene and reagent
CtsK1: DRSC08742 -0.34
pgc: DRSC04099 0.09
Eglp3: DRSC04293 -0.86

Further records follow:
replicate 1, z-score of dpERK with insulin, by gene and reagent
eas: DRSC20329 0.19
Klp10A: DRSC19601 -0.23
sktl: DRSC04715 -1.15
T48: DRSC16878 0.33
CG13062: DRSC09945 0.1
CG14591: DRSC04868 0.87
MFS15: DRSC06523 0.48
CG8245: DRSC04901 0.52
sds22: DRSC17052 0.34
Muc55B: DRSC21440 -0.21
Tollo: DRSC11305 1.49
Cdc23: DRSC02708 2.71
wrm1 + wrm2: DRSC11007 0.45
Obp56b: DRSC06551 0.65
GstT1: DRSC06243 0.92
fred: DRSC00349 0.25; DRSC00599 -0.27; DRSC00601 -0.58; DRSC00602 -0.19; DRSC21906 -0.44
CG14937: DRSC02419 -0.11
CG7631: DRSC01873 -0.06
mil: DRSC15696 0.57
CG11808: DRSC06088 -0.1
COX3 (retired record): DRSC21279 0.52
RpS19b: DRSC15773 -0.41
CG42747: DRSC10209 0.59; DRSC10210 0.29
CG1902: DRSC06798 0.7
CG14135: DRSC10140 -0.14
Fuca: DRSC10591 -0.28
CG14439: DRSC17931 0.28
CG30273: DRSC22059 1.94
Nnf1a: DRSC06394 -1.12
Isha: DRSC04456 -0.04
mus201 + Chrac-14: DRSC03568 -0.11; DRSC03575 0.18
CG11018: DRSC06024 0.34
Sgf11: DRSC09987 -0.96
ast: DRSC00803 0.08
